According to patent US11795162B2, “Modulators of the estrogen-related receptor” (Saint Louis University, priority 2017, dated 2023):
Some of these results come from one statement about several compounds together.

Target: T1, ERR gamma protein (Homo sapiens, UniProt P62508)
T1 sequence (P62508 1-458): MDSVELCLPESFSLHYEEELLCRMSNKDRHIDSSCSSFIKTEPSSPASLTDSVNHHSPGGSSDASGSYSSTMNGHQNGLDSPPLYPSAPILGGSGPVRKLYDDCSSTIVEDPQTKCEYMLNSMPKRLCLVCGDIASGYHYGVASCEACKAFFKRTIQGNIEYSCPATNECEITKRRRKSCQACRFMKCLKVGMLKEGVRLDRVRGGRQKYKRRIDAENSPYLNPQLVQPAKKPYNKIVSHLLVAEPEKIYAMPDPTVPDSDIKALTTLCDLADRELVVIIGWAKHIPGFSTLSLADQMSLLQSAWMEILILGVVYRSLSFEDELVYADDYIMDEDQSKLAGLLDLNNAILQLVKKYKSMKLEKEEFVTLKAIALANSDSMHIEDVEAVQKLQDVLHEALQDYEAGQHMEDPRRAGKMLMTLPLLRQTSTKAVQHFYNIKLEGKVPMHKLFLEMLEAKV
Assay: Protein thermal shift assay
Type: binding
Conditions: compound at 20 μM, ERR gamma protein 0.1 mg/mL, SYPRO-Orange
Procedure: Six replicate reactions were set up and run in Applied Biosystems Quantstudio 7 Real-Time PCR system. Data were collected at a ramp rate of 0.05° C./s from 24° C. through 95° C. and analyzed using Protein Thermal Shift Software 1.3.

Compound: O=C(Nc1ccc(O)cc1)c1cc(-c2ccc(O)cc2)[nH]n1 [Compound 131]
- T.S. (thermal shift) range: > 4 °C
